The list shows a part of the results. Small differences around the control level are noise.
compound: CN[C@@H]1C[C@H]2O[C@@](C)([C@@H]1OC)n1c3ccccc3c3c4c(c5c6ccccc6n2c5c31)C(=O)NC4 [staurosporine]; assay: log2 fold change of tryptic peptide abundance, ligand vs vehicle (limited proteolysis) (log2 ratio); higher = more trypsin-susceptible (destabilized); conditions: ligand concentration: 20 uM; sample: mouse liver crude lysate; replicate design: treated separately

Protein sequences, listed by entry. Tags and fused reporters are not part of them. Lines headed by an entry give the natural chain unless they say otherwise; changes in a name come on top.
UniProt Q6VN19, whole entry: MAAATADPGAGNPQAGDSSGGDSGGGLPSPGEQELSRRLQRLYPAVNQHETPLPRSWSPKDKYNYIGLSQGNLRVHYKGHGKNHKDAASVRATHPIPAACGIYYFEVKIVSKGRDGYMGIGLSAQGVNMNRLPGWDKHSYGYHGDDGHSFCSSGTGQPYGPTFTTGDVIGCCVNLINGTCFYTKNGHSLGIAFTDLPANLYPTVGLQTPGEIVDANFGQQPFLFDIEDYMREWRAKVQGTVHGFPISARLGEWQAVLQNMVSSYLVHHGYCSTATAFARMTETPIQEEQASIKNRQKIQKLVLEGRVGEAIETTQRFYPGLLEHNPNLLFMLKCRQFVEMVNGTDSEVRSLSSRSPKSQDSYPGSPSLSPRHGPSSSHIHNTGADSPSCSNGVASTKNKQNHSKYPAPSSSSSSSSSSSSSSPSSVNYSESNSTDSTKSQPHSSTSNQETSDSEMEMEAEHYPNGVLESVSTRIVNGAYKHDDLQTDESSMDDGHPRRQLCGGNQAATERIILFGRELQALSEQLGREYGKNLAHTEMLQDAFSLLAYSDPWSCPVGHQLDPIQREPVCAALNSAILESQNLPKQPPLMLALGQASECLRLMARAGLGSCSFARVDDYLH
UniProt Q6IRU2, whole entry: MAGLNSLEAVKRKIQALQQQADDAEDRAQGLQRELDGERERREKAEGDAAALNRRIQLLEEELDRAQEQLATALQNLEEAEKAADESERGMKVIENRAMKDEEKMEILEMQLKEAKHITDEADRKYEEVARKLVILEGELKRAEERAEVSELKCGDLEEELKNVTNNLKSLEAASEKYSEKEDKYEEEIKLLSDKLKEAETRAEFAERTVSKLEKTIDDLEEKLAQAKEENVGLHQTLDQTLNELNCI
UniProt Q6Q6R3: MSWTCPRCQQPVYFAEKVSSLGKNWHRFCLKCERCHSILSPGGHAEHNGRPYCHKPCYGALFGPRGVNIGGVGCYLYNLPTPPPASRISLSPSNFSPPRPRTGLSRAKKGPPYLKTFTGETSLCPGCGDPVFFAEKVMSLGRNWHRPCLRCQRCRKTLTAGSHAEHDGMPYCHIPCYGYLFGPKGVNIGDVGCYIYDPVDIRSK
UniProt Q6PAL8: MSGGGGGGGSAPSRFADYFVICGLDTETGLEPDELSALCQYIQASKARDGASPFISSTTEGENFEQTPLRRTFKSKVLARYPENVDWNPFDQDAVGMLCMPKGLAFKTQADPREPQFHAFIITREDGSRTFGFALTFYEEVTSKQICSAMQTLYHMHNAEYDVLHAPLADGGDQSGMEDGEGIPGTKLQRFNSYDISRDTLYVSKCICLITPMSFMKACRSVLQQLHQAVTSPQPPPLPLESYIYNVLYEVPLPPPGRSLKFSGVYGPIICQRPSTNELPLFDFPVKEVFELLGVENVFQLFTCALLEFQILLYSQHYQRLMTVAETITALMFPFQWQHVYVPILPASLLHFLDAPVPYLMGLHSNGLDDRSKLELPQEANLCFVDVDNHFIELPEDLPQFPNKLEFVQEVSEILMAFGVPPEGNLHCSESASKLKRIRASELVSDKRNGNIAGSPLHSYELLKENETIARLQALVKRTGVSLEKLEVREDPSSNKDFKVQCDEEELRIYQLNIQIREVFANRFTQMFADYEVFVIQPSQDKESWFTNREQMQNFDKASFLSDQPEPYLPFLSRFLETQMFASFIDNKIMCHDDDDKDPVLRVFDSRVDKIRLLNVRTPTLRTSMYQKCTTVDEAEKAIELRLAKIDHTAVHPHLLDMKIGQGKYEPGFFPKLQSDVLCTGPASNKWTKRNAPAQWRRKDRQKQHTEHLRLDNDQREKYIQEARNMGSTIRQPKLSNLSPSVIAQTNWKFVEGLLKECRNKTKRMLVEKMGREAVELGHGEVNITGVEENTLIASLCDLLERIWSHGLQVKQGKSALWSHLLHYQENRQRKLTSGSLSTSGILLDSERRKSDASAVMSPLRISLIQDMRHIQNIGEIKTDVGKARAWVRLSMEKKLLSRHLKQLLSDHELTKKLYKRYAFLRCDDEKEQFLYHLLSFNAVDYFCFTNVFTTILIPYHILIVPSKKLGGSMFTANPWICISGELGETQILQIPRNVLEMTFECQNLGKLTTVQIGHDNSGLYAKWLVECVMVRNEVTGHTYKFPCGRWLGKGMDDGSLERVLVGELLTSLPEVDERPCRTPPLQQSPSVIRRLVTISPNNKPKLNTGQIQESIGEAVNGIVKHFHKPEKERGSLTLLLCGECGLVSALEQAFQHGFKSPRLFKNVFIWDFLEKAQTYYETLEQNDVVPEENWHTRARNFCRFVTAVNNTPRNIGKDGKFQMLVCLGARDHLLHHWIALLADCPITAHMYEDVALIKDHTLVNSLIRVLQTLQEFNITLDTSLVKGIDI
UniProt Q6NS59: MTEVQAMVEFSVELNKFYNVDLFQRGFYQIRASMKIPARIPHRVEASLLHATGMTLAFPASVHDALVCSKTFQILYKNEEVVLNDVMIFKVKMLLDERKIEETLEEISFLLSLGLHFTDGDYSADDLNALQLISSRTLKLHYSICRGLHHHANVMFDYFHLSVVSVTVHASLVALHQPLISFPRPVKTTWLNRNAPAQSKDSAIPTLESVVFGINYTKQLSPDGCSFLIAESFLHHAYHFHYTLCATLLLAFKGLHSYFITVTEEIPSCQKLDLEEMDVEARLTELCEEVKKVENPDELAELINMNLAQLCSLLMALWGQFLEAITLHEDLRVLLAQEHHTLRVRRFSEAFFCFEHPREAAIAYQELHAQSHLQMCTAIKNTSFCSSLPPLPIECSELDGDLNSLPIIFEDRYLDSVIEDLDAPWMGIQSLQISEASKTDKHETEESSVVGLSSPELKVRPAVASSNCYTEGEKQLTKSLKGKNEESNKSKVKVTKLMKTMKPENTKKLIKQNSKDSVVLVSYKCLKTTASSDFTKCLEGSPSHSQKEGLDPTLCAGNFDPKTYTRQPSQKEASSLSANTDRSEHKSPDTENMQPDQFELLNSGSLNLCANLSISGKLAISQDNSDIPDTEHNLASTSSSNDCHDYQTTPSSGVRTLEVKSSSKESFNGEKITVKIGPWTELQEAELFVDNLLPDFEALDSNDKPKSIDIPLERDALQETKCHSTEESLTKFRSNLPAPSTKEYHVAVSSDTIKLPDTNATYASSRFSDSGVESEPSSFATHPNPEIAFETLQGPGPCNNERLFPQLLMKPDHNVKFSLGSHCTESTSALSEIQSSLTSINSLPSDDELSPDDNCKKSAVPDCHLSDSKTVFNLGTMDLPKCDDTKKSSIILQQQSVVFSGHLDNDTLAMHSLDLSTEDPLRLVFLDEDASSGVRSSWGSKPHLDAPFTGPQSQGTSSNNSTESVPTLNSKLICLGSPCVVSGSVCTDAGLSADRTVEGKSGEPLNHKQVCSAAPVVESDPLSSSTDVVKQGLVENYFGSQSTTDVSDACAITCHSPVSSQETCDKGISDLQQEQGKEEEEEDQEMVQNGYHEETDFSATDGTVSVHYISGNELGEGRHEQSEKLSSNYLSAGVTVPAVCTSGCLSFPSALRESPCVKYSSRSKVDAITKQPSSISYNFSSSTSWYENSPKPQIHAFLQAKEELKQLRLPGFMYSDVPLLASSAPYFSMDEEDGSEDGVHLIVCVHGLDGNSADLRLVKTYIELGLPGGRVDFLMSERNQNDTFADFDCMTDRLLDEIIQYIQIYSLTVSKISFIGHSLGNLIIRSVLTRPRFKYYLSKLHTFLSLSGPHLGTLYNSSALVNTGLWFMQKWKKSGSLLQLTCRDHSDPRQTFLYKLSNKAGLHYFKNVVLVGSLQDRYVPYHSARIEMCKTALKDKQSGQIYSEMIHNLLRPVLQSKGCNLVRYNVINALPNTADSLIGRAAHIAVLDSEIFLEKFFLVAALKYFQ

Target	log2 fold change
UniProt Q6VN19 (peptide sequence: ELQALSEQLGR, peptide start residue: 517)	0.265
UniProt Q6IRU2 (peptide sequence: MEILEMQLK, peptide start residue: 105)	0.0813
UniProt Q6Q6R3 (peptide sequence: FCLKCER, peptide start residue: 28)	-0.135
UniProt Q6PAL8 (peptide sequence: RLVTISPNNKPK, peptide start residue: 1091)	0.684
UniProt Q6NS59 (peptide sequence: SAVPDCHLSDSK, peptide start residue: 858)	-0.169

— the supplement of paper PMC12819154, “High-throughput peptide-centric local stability assay extends protein–ligand identification to membrane proteins, tissues and bacteria” (Nature Structural & Molecular Biology, 2025)
